The other results are listed elsewhere or left out. Residues, ends and D or L forms follow the SMILES beside them. *: point of attachment. Cbz = O=C(OCc1ccccc1)*
Tests used:
Assay in all cases: log2 fold change, soluble protein after heating vs DMSO (PISA); higher = thermal stabilisation; K562 cells, 10 uM, 30 min; active = over 0.2 and 3.5 SD of the protein, either way, in both replicates (recomputed)
[1] = compound: C#Cc1cccc(Nc2ncnc3cc(OCCOC)c(OCCOC)cc23)c1 [erlotinib]
Outline: (§1)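 Soluble protein was quantified by TMTpro 16plex LC-MS/MS after channel sums were equalised. It was obtained as the supernatant after 21,000xg for 90 min from pooled aliquots of K562 cells (2×10^6 cells/mL, 10 μM compound, 30 min) heated for 3 min across 48°C-58°C and extracted in PBS with 0.5% NP-40 at 4°C. Thermal stability values are relative to control samples and come from duplicates. They are given as log2 fold changes.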

Sequences of proteins named here, by UniProt entry; tags and fusion partners are left off. A change or cut given only in a name is not applied to a line headed by its entry.
UniProt Q8NCE0: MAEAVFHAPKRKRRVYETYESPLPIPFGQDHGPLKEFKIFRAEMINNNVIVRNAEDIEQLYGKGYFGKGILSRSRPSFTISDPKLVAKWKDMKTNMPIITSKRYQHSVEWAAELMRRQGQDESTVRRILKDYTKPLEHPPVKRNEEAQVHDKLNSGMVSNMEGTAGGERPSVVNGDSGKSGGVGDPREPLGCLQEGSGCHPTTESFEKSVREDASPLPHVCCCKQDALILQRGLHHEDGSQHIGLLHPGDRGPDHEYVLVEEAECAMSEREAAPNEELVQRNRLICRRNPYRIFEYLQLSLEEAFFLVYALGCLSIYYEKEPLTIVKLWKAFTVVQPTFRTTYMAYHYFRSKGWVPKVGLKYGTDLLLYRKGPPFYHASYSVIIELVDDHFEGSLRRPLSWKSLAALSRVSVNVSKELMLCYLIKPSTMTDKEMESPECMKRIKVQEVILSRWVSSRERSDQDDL
UniProt Q15388, whole entry, looked up: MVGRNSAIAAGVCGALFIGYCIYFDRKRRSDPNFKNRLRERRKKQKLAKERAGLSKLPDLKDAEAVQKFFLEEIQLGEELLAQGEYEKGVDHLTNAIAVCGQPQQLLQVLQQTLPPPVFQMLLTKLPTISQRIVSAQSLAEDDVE
UniProt O14787: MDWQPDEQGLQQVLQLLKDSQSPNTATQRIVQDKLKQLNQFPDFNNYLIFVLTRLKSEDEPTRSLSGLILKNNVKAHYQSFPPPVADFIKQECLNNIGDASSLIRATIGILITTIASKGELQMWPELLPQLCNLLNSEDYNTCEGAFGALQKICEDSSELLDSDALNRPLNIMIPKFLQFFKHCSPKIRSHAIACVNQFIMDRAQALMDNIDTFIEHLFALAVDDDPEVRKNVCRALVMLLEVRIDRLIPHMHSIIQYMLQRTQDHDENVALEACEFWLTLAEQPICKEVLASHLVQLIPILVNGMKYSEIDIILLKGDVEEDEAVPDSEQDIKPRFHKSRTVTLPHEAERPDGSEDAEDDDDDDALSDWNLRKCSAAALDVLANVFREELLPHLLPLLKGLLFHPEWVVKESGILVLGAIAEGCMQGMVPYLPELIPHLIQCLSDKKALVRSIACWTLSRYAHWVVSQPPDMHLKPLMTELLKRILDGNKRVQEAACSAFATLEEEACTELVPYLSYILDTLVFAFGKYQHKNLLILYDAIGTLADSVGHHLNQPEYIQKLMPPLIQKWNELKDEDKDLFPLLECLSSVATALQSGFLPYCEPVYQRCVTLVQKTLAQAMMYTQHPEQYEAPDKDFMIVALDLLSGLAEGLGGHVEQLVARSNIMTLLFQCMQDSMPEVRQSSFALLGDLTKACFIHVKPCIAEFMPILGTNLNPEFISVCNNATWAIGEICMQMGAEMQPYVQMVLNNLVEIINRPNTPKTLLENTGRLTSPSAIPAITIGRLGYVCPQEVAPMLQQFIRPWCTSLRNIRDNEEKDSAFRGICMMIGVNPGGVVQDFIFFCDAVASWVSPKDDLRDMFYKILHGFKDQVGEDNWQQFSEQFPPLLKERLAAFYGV
UniProt Q15628: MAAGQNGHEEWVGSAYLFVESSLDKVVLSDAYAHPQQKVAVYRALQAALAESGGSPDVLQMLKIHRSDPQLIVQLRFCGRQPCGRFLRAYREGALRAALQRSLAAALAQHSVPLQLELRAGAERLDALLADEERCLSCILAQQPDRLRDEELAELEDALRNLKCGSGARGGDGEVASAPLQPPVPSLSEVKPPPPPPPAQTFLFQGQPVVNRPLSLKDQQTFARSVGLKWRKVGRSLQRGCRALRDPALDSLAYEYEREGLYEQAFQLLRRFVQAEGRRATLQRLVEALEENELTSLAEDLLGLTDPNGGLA
UniProt Q8N4H5: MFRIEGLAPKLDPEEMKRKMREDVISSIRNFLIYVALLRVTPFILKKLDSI
UniProt Q9Y5R8, whole entry, looked up: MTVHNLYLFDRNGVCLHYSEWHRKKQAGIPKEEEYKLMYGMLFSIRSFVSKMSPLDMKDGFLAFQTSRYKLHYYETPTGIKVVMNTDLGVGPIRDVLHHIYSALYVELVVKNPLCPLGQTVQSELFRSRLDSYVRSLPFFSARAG
UniProt Q8TEL6: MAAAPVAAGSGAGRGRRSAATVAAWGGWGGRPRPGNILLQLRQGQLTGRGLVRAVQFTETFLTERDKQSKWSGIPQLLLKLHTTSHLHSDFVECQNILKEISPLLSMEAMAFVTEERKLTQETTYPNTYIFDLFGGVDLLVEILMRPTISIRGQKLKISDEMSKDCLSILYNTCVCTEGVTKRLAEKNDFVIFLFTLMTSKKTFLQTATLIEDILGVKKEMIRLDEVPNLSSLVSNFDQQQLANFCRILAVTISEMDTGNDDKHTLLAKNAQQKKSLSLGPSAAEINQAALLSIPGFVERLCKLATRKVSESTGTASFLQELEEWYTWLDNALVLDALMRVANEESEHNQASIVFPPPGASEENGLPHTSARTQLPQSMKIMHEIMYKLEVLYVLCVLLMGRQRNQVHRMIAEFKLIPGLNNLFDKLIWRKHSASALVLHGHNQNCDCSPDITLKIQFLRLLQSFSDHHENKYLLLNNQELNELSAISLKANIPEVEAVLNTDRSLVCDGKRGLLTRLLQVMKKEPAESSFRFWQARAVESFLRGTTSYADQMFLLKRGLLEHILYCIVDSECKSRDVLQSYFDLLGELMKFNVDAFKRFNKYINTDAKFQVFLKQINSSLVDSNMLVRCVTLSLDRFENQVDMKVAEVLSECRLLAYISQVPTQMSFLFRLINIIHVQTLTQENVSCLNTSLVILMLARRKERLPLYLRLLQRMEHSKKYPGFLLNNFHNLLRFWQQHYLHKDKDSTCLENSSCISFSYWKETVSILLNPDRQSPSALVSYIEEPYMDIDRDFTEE
UniProt Q6ZVM7: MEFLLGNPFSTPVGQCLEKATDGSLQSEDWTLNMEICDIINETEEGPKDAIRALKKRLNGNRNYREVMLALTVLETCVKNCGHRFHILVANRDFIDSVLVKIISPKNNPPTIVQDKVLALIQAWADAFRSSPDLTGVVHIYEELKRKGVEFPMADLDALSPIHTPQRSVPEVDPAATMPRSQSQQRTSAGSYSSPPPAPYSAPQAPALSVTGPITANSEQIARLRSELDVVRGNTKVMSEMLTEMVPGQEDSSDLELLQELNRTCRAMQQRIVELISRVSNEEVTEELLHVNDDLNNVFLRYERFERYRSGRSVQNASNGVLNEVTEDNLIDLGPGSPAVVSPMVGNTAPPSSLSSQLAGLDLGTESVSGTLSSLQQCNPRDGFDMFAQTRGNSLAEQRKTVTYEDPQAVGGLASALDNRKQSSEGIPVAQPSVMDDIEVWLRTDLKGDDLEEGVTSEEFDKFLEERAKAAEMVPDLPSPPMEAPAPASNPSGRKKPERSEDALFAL
UniProt Q7Z392: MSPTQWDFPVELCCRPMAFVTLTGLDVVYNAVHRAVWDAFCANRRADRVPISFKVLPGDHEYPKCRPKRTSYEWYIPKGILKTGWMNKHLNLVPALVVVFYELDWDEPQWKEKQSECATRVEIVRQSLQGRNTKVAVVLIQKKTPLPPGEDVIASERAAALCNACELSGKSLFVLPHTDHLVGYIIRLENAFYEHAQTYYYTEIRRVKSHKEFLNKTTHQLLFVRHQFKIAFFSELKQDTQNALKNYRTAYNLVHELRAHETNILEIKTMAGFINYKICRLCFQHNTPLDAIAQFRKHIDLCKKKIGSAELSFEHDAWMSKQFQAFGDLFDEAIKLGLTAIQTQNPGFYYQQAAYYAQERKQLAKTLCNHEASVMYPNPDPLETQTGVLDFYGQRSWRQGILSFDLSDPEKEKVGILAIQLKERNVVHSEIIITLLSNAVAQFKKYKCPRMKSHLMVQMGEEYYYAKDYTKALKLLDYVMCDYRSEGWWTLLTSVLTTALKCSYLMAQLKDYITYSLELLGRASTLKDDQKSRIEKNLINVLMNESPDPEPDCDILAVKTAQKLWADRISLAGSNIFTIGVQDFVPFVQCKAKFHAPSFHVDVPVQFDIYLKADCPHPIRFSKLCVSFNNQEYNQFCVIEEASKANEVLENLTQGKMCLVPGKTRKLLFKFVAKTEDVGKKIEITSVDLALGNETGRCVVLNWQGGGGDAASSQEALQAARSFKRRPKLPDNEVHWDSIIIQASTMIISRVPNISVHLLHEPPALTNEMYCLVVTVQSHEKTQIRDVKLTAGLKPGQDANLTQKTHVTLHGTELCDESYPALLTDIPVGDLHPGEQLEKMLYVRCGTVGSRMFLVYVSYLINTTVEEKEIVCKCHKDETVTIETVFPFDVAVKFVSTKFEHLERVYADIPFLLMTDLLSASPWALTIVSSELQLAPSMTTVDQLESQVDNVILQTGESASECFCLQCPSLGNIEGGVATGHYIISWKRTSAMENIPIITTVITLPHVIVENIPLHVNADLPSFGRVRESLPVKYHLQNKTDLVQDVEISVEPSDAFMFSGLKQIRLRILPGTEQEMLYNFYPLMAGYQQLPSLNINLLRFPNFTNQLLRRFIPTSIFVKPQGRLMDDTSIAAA
UniProt Q15642: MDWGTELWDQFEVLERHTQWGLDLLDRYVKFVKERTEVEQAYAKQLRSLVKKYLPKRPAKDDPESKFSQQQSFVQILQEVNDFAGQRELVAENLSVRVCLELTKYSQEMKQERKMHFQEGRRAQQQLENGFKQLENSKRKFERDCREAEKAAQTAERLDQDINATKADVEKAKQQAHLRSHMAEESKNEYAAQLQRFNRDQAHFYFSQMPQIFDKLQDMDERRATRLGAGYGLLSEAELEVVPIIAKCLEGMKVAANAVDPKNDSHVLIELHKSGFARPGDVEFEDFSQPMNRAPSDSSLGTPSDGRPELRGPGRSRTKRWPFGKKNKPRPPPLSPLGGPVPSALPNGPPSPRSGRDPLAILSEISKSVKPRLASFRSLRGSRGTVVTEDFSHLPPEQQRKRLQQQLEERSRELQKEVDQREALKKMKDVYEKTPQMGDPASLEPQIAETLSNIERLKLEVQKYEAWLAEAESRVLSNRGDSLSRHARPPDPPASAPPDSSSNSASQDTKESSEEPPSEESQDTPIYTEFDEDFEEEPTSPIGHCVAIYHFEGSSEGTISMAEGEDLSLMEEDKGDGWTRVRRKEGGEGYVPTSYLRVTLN
UniProt Q86SZ2: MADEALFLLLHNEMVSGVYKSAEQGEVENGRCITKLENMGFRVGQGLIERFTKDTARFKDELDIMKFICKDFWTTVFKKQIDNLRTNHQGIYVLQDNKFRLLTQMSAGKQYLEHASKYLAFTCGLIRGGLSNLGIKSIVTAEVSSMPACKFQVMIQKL
UniProt Q15629: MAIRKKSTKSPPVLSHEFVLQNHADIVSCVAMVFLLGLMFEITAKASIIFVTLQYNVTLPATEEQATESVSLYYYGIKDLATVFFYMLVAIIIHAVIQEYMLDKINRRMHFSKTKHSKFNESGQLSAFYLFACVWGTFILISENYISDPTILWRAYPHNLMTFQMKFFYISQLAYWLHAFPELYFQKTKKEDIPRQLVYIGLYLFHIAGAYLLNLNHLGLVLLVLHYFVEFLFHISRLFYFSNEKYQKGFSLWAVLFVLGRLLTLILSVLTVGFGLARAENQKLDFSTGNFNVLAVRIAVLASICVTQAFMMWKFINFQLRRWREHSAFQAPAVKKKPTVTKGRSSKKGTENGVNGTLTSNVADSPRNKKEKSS
UniProt Q96GJ1: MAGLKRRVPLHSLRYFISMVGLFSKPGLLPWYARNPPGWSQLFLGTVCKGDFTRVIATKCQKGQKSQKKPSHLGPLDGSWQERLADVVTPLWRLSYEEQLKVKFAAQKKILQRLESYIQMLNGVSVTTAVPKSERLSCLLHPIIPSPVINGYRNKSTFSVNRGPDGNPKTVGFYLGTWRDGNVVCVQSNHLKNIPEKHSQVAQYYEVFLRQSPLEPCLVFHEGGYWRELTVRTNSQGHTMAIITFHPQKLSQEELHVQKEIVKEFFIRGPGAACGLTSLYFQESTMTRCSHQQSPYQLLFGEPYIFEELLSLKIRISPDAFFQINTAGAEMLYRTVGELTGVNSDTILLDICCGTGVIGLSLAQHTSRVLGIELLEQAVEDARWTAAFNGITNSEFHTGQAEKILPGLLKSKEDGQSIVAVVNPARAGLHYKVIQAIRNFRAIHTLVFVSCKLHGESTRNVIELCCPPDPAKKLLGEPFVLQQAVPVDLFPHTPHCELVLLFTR
UniProt Q7L0Y3: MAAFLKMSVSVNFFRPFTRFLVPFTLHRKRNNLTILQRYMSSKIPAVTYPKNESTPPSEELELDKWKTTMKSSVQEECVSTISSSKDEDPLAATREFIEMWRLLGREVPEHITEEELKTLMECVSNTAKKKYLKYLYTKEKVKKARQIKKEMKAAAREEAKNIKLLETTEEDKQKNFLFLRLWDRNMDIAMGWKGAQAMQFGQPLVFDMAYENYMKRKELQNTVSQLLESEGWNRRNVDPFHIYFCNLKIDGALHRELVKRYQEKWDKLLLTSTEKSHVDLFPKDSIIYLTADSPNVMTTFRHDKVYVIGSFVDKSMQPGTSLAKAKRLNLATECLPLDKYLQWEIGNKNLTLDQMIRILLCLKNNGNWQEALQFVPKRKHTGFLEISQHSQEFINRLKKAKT

[2] = compound: C/C(=N\NC(=O)C1=CC(=CC=C1)S(=O)(=O)N2CCOCC2)/C3=C(C=CC(=C3)Cl)O
Outline: as §1

[3] = compound: C1=CC(=C(C=C1Cl)C2=NC3=NC=CN=C3C(=N2)NC4=CC=NC=C4)F
Outline: as §1

[4] = compound: C1=CC(=CC=C1C2=NC3=C(N2)C=C(C=C3)C(=O)N)OC4=CC=C(C=C4)Cl
Outline: as §1

[5] = compound: C1=CC2=C(C=CC(=C2)/C=C\3/C(=O)NC(=NCC4=CC=CS4)S3)N=C1
Outline: as §1

[6] = compound: C1=CC2=NC=CN=C2C=C1/C=C/3\C(=O)NC(=O)S3
Outline: as §1

[7] = compound: C1=CC=C(C=C1)C2=NC(=C(N2)C3=CC=NC=C3)C4=CC(=C(C=C4)Cl)O
Outline: as §1

[8] = compound: C1=CC=C2C(=C1)C3=NNC4=CC=CC(=C43)C2=O
Outline: as §1

[9] = compound: C1CCN(C1)C(=O)NC2=CC=CC(=C2)NC3=NC=C(C(=N3)NCCC4=CN=CN4)Br
Outline: as §1

[10] = compound: C1CN(CCC1(CC2=CC=C(C=C2)Cl)N)C3=NC=NC4=C3C=CN4
Outline: as §1

[11] = compound: C1COCCN1CCN2C3=CC=CC=C3N=C2NC(=O)C4=CC(=CC=C4)[N+](=O)[O-] [IRAK-1-4 Inhibitor I]
Outline: as §1

[12] = compound: C=CC(=O)N1CCC[C@@H](n2nc(-c3ccc(Oc4ccccc4)cc3)c3c(N)ncnc32)C1 [ibrutinib]
Outline: as §1

[13] = compound: CC(=O)c1cnc2ccc(-c3cc(Cl)c(O)c(Cl)c3)nc2c1N[C@H]1CC[C@H](CN(C)C)CC1
Outline: as §1

[14] = compound: CC(C)(C)Cn1c(N)nc2ccc(-c3[nH]c(C(C)(C)C)nc3-c3ccc(F)cc3)nc21 [ralimetinib]
Outline: as §1

[15] = compound: CC(C)(O)CC(=O)NCCn1ccc2ncnc(Nc3ccc(Oc4cccc(C(F)(F)F)c4)c(Cl)c3)c21
Outline: as §1

[16] = compound: CC(C)C1=C2N=C(C=C(N2N=C1)NCC3=CC=CC=C3)NCCCCCCN
Outline: as §1

[17] = compound: CC(C)C[C@@H](C=O)NC(=O)[C@H](CC(C)C)NC(=O)[C@H](CC(C)C)NC(=O)OCc1ccccc1
Outline: as §1

[18] = compound: CC(C)N(C[C@H]1O[C@@H](n2cnc3c(N)ncnc32)[C@H](O)[C@@H]1O)[C@H]1C[C@@H](CCc2nc3cc(C(C)(C)C)ccc3[nH]2)C1 [pinometostat]
Outline: as §1

[19] = compound: CC1=C(C2=C(C=C1)C(=O)C3=CC=CC=C3N2CCCN)C
Outline: as §1

[20] = compound: CC1=C(C(CC(=O)N1)C2=CC=C(C=C2)C(F)(F)F)C(=O)NC3=C(C=C4C(=C3)C=NN4)F
Outline: as §1

Target	log2 fold change [1]	log2 fold change [2]	log2 fold change [3]	log2 fold change [4]	log2 fold change [5]	log2 fold change [6]	log2 fold change [7]	log2 fold change [8]	log2 fold change [9]	log2 fold change [10]	log2 fold change [11]	log2 fold change [12]	log2 fold change [13]	log2 fold change [14]	log2 fold change [15]	log2 fold change [16]	log2 fold change [17]	log2 fold change [18]	log2 fold change [19]	log2 fold change [20]
TSEN2 (UniProt Q8NCE0)	inactive: 0.08	inactive: -0.001	inactive: -0.016	inactive: 0.029	inactive: 0.041	inactive: 0.098	inactive: 0.023	inactive: 0.023	inactive: -0.04	inactive: 0.061	inactive: 0.073	inactive: -0.022	inactive: -0.116	inactive: -0.034	inactive: -0.127	inactive: 0.033	inactive: -0.001	inactive: 0.004	inactive: 0.027	
TOMM20 (UniProt Q15388)	inactive: 0.073	inactive: -0.01	inactive: -0.013	inactive: 0.004	inactive: 0.012	inactive: 0.018	inactive: 0.049	inactive: -0.006	inactive: 0.007	inactive: 0.027	inactive: 0.006	inactive: 0	inactive: 0.003	inactive: -0.017	inactive: 0.118	active: -0.343	inactive: 0.047	inactive: 0.022	inactive: 0.018	
TNPO2 (UniProt O14787)	inactive: 0.075	inactive: 0.115	inactive: 0.033	inactive: -0.064	inactive: 0.077	inactive: 0.017	inactive: 0.018	inactive: -0.008	inactive: 0.027	inactive: -0.008	inactive: -0.088	inactive: -0.023	inactive: -0.051	inactive: 0.027	inactive: -0.138	active: -0.339	inactive: -0.042	inactive: 0.012	inactive: -0.171	
TRADD (UniProt Q15628)	inactive: 0.143	inactive: 0.023	inactive: -0.109	inactive: 0.001	inactive: 0.063		inactive: 0.002	inactive: -0.054					inactive: -0.007	inactive: 0.043	inactive: -0.156	inactive: -0.316	inactive: -0.246			inactive: 0.029
TOMM5 isoform 2 (UniProt Q8N4H5)	inactive: -0.115	inactive: 0.063	active: 0.378	inactive: 0.134	inactive: 0	inactive: 0.052	inactive: -0.123	inactive: -0.003	inactive: -0.038	inactive: -0.047	inactive: 0.037	inactive: 0.01	inactive: -0.033	inactive: -0.099	inactive: -0.048	inactive: 0.221	inactive: 0.036	inactive: 0.148	inactive: 0.003	
TRAPPC1 (UniProt Q9Y5R8)	inactive: 0.019	inactive: 0.095		inactive: 0.08	inactive: 0.206	inactive: 0.014	inactive: -0.066	inactive: -0.027	inactive: 0.038	inactive: -0.045	inactive: -0.031	inactive: 0	inactive: -0.044	inactive: -0.043		inactive: 0.029	inactive: 0.067	inactive: -0.042	inactive: 0.031	inactive: -0.08
TPR (UniProt P12270)	inactive: -0.113	inactive: 0.023	inactive: -0.001	inactive: -0.011	inactive: -0.098	inactive: 0.174	inactive: -0.104	inactive: -0.118	inactive: 0	inactive: -0.142	inactive: 0.03	inactive: -0.048	inactive: 0.247	inactive: 0.058	inactive: 0.121	inactive: 0.091	inactive: 0.024	inactive: -0.001	inactive: -0.122	
TRPC4AP (UniProt Q8TEL6)	inactive: -0.006	inactive: -0.005	inactive: -0.073	inactive: 0.073	inactive: -0.025		inactive: 0.028	inactive: 0.045	inactive: 0.001	inactive: -0.1	inactive: -0.006		inactive: 0.045	inactive: -0.005	inactive: -0.048	inactive: -0.025	inactive: 0.219	inactive: 0.202	inactive: -0.143	inactive: 0.133
TRAPPC2 isoform 3 (UniProt P0DI81)	inactive: -0.024	inactive: 0.107		inactive: 0.041	inactive: -0.046	inactive: -0.053	inactive: 0.001	inactive: 0.045	inactive: -0.103	inactive: 0.123		inactive: 0.01	inactive: -0.122	inactive: 0.031		inactive: -0.046	inactive: 0.161		inactive: -0.15	inactive: -0.144
TOE1 (UniProt Q96GM8)	inactive: -0.029	inactive: -0.151	inactive: -0.267	inactive: -0.056	inactive: 0.002	inactive: 0.005	inactive: -0.05	inactive: -0.035	inactive: -0.021	inactive: -0.107	inactive: -0.15	inactive: -0.031	inactive: 0.089	inactive: 0.012	inactive: 0.005	inactive: 0.042	inactive: 0.09	inactive: 0.077	inactive: -0.228	
TOM1L2 (UniProt Q6ZVM7)	inactive: -0.048	inactive: 0.06	inactive: 0.043	inactive: 0.013	inactive: 0.025			inactive: -0.026			inactive: -0.049		inactive: -0.031		inactive: -0.089	inactive: 0.049		inactive: 0.036		
TRAPPC11 (UniProt Q7Z392)	inactive: 0.044	inactive: 0.136	inactive: -0.027	inactive: 0.017	inactive: 0.105	inactive: 0.059	inactive: 0.027	inactive: 0.062	inactive: -0.019	inactive: -0.001	inactive: -0.007	inactive: 0.001	inactive: -0.048	inactive: 0.034	inactive: -0.063	inactive: -0.064	inactive: 0.012	inactive: 0.032	inactive: 0.028	
TRIP10 (UniProt Q15642)	inactive: 0.052	inactive: 0.015	inactive: 0.203	inactive: 0.022	inactive: 0.013	inactive: -0.025	inactive: 0.044	inactive: 0.011	inactive: 0.013	inactive: -0.026	inactive: 0.007	inactive: 0.002	inactive: 0.009	inactive: 0.001	inactive: 0	inactive: -0.022	inactive: 0.007	inactive: -0.007	inactive: -0.02	
TRAPPC6B (UniProt Q86SZ2)	inactive: 0.026	inactive: 0.07	active: 0.315	inactive: -0.016	inactive: 0.011	inactive: -0.006	inactive: -0.016	inactive: -0.014	inactive: -0.048	inactive: 0.018	inactive: -0.022	inactive: 0.032	inactive: -0.001	inactive: -0.015	inactive: -0.138	inactive: 0.032	inactive: 0.032	inactive: -0.036	inactive: 0.004	
TRAM1 (UniProt Q15629)	inactive: 0.059	inactive: 0.016	inactive: -0.028	inactive: -0.088	inactive: 0.015	inactive: 0.065	inactive: 0.144	inactive: -0.151	inactive: 0.105	inactive: 0	inactive: -0.036	inactive: -0.051	inactive: -0.032	inactive: -0.014	inactive: -0.016	active: -0.889	inactive: 0.012	inactive: -0.011	inactive: 0.119	
TNPO3 (UniProt Q9Y5L0)	inactive: -0.01	inactive: 0.132	inactive: 0.068	inactive: -0.009	inactive: -0.014	inactive: 0.029	inactive: 0.023	inactive: -0.007	inactive: 0.004	inactive: -0.03	inactive: -0.006	inactive: -0.02	inactive: -0.014	inactive: 0.024	inactive: -0.156	inactive: -0.154	inactive: -0.08	inactive: 0.006	inactive: -0.02	
TRMT2B (UniProt Q96GJ1)	inactive: 0.165	inactive: -0.093		inactive: 0.158	inactive: 0.006	inactive: 0.11	inactive: -0.013	inactive: 0.044	inactive: 0.022	inactive: 0.06		inactive: 0.017	inactive: -0.001	inactive: -0.048		inactive: -0.308	inactive: 0.023		inactive: -0.007	inactive: 0.026
TRMT10C (UniProt Q7L0Y3)	inactive: -0.015	inactive: 0.066	inactive: 0.09	inactive: 0.062	inactive: 0.009	inactive: -0.007	inactive: 0.036	inactive: 0.036	inactive: -0.008	inactive: 0.009	inactive: 0.029	inactive: 0.011	inactive: -0.07	inactive: -0.06	inactive: -0.055	inactive: 0.012	inactive: 0.005	inactive: -0.021	inactive: 0.014	

Not a retest: entries from further up.
Target	log2 fold change [1]	log2 fold change [2]	log2 fold change [3]	log2 fold change [4]	log2 fold change [5]	log2 fold change [6]	log2 fold change [7]	log2 fold change [8]	log2 fold change [9]	log2 fold change [10]	log2 fold change [11]	log2 fold change [12]	log2 fold change [13]	log2 fold change [14]	log2 fold change [15]	log2 fold change [16]	log2 fold change [17]	log2 fold change [18]	log2 fold change [19]	log2 fold change [20]
TOMM20 (UniProt Q15388)	inactive: 0.073	inactive: -0.01	inactive: -0.013	inactive: 0.004	inactive: 0.012	inactive: 0.018	inactive: 0.049	inactive: -0.006	inactive: 0.007	inactive: 0.027	inactive: 0.006	inactive: 0	inactive: 0.003	inactive: -0.017	inactive: 0.118	active: -0.343	inactive: 0.047	inactive: 0.022	inactive: 0.018	
TNPO2 (UniProt O14787)	inactive: 0.075	inactive: 0.115	inactive: 0.033	inactive: -0.064	inactive: 0.077	inactive: 0.017	inactive: 0.018	inactive: -0.008	inactive: 0.027	inactive: -0.008	inactive: -0.088	inactive: -0.023	inactive: -0.051	inactive: 0.027	inactive: -0.138	active: -0.339	inactive: -0.042	inactive: 0.012	inactive: -0.171	

Source: the supplement of paper PMC10849652
